Source: publication PMC9296550
Results are given in words; binding and its absence hold for the method and conditions named. Binding seen in cells or lysates may run through a third protein. Some results given as binding are weak or reduced against the parent protein; the word gives no strength.

Sequences of proteins named here, by UniProt entry; tags and fusion partners are left off.
UniProt P18887: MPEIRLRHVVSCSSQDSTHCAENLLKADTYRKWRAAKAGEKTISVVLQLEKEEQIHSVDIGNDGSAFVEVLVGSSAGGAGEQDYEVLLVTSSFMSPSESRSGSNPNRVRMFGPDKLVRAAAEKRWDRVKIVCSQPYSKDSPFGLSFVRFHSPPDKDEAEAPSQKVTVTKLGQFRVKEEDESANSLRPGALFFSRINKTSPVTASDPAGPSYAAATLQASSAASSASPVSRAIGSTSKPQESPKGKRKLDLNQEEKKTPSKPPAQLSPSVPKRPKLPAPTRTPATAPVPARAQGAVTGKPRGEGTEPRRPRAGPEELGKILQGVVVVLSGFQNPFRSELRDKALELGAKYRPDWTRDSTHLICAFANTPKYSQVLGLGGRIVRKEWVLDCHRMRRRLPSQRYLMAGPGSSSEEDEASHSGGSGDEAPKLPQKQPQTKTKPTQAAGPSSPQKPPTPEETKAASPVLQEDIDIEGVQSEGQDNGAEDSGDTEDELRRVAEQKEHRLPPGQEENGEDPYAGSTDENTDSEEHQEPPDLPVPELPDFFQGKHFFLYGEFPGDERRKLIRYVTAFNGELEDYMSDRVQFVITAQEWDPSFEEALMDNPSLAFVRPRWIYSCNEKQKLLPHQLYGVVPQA

T1: Mre11 (human (endogenous in PEO1)) (UniProt P49959)
T1 sequence: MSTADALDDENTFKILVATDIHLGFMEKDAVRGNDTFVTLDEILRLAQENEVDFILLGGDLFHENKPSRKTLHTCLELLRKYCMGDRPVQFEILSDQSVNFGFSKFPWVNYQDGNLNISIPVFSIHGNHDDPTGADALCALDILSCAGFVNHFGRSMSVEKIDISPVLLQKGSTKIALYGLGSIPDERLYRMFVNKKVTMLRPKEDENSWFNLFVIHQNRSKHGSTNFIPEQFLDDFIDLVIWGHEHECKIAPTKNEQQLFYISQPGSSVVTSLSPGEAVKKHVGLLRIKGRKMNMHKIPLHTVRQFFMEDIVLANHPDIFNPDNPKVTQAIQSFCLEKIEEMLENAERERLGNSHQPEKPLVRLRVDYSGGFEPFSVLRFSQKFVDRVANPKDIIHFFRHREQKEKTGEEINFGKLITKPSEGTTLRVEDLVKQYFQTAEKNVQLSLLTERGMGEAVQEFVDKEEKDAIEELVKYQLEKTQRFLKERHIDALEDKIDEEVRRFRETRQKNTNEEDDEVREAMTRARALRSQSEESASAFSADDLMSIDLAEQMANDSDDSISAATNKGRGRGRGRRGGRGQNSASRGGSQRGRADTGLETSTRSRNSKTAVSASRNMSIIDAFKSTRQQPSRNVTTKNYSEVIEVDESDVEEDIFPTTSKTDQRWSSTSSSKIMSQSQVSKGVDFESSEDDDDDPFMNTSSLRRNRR

B1: LIG3 (protein, UniProt P49916 43-1009)
chain: LLHGHPLFLRRKPVLSFQGSHLRSRATYLVFLPGLHVGLCSGPCEMAEQRFCVDYAKRGTAGCKKCKEKIVKGVCRIGKVVPNPFSESGGDMKEWYHIKCMFEKLERARATTKKIEDLTELEGWEELEDNEKEQITQHIADLSSKAAGTPKKKAVVQAKLTTTGQVTSPVKGASFVTSTNPRKFSGFSAKPNNSGEAPSSPTPKRSLSSSKCDPRHKDCLLREFRKLCAMVADNPSYNTKTQIIQDFLRKGSAGDGFHGDVYLTVKLLLPGVIKTVYNLNDKQIVKLFSRIFNCNPDDMARDLEQGDVSETIRVFFEQSKSFPPAAKSLLTIQEVDEFLLRLSKLTKEDEQQQALQDIASRCTANDLKCIIRLIKHDLKMNSGAKHVLDALDPNAYEAFKASRNLQDVVERVLHNAQEVEKEPGQRRALSVQASLMTPVQPMLAEACKSVEYAMKKCPNGMFSEIKYDGERVQVHKNGDHFSYFSRSLKPVLPHKVAHFKDYIPQAFPGGHSMILDSEVLLIDNKTGKPLPFGTLGVHKKAAFQDANVCLFVFDCIYFNDVSLMDRPLCERRKFLHDNMVEIPNRIMFSEMKRVTKALDLADMITRVIQEGLEGLVLKDVKGTYEPGKRHWLKVKKDYLNEGAMADTADLVVLGAFYGQGSKGGMMSIFLMGCYDPGSQKWCTVTKCAGGHDDATLARLQNELDMVKISKDPSKIPSWLKVNKIYYPDFIVPDPKKAAVWEITGAEFSKSEAHTADGISIRFPRCTRIRDDKDWKSATNLPQLKELYQLSKEKADFTVVAGDEGSSTTGGSSEENKGPSGSAVSRKAPSKPSASTKKAEGKLSNSNSKDGNMQTAKPSAMKVGEKLATKSSPVKVGEKRKAADETLCQTKVLLDIFTGVRLYLPPSTPDFSRLRRYFVAFDGDLVQEFDMTSATHVLGSRDKNPAAQQVSPEWIWACIRKRRLVAPC

Molecular target: T1, Mre11 (human (endogenous in PEO1))
Assay: co-IP; whole cell lysates of A2780, A2780cis, PEO1 and PEO4 in RIPA buffer with protease inhibitors; lysates incubated with the indicated antibodies overnight, protein A/G magnetic beads 2 h at room temperature; washed 4 times with PBS, 0.01% Tween 20; detected by blot

Molecule	binding
XRCC1 (X-ray repair cross-complementing gene 1) (from UniProt P18887 1-633)	binds
B1	binds
